Test results taken from article PMC6966528.
Results are given in words; binding and its absence hold for the method and conditions named. Binding seen in cells or lysates may run through a third protein. Some binding calls cover weakened binding; strength is not graded here.

The chains behind the UniProt entries cited, without tags or fusion partners.
UniProt P35222: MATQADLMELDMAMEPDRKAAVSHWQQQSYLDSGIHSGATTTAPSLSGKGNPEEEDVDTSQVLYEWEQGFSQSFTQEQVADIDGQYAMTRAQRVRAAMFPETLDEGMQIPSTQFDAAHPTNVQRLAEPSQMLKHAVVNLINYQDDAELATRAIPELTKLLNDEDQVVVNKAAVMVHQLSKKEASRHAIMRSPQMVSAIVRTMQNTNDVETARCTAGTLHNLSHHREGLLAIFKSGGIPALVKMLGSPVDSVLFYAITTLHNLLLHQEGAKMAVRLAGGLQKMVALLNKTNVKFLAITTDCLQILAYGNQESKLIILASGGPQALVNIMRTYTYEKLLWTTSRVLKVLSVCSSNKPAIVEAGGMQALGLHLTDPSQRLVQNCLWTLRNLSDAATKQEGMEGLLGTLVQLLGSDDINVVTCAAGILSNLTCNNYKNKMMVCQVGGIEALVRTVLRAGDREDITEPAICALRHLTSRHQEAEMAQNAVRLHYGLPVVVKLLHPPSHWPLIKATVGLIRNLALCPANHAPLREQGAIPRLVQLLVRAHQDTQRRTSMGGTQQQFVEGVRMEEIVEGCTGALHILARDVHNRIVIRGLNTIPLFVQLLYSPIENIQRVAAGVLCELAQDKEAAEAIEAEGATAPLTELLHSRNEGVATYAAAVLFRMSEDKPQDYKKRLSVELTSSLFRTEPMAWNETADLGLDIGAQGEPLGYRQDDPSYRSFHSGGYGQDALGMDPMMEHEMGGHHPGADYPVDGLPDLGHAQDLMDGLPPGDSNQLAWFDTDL
UniProt P35221: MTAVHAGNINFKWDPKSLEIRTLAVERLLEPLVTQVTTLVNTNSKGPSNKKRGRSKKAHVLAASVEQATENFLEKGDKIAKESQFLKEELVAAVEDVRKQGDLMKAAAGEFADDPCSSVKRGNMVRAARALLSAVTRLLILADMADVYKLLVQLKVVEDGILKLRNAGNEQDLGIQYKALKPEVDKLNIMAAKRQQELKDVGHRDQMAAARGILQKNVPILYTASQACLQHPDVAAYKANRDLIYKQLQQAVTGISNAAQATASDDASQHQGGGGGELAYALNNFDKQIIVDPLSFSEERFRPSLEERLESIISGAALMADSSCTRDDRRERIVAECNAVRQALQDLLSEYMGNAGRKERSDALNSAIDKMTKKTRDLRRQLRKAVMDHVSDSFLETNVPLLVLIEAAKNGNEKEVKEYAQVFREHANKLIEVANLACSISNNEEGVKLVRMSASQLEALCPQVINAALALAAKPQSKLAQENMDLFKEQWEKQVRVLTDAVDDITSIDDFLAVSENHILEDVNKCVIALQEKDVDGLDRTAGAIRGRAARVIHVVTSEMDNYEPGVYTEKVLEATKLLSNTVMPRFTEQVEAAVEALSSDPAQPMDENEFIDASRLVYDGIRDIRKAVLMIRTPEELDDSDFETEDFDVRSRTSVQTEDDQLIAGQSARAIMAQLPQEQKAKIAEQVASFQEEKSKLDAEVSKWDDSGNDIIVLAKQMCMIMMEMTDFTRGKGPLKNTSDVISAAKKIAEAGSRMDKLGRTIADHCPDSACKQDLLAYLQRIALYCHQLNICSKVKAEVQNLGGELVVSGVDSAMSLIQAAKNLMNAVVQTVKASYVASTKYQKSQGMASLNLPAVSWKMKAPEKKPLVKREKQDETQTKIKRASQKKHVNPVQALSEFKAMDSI

Target: pY30-β-catenin (human (endogenous in MCF7)) (UniProt P35222)
Assay: co-IP; lysates of parental (nontransfected) and GFP-Syk-expressing MCF7 cells; ≈700 μg lysate with 2 μg antibody, protein-A/G Sepharose beads, 4 °C, 3 h; Western blot

α-catenin (from UniProt P35221 1-906)
binding: binds
